PubChem BioAssay AID1508597, Cure First – 2020

Assay: 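Knock-downs altering ovarian cancer cell survival with or without PARP inhibitor rucaparib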 (primary screen)
System: human ovarian carcinoma lines grown from tumours: OCI-P5x (papillary serous) and OCI-C5x (clear cell)
Reagents: siRNA pool against human genes, 1.25 pmol siRNA per well
Duration: 72 h or 96 h, depending on the cell culture
Challenge: rucaparib 20 µM (about IC30) or vehicle, present until read-out
Rucaparib or vehicle: Vehicle
Cell line: OCI-C5x (clear cell)
Read-out: 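ATP luminescence measured at 72 or 96 h according to the culture, then normalised and expressed as percent viability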
Reading the numbers: viability, normalised: higher = more viable cells remaining
Rule for the call: 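Active when normalised viability falls below 80 percent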
Calls: active = viability under 80%; inactive = viability 80% or more
Shown is a random part of the about 2,100 reagents, in one setting of the screen. 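Calls flag viability under 80% in either arm, not effects specific to rucaparib; the reference for percent is not stated.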 Some reagents were tested in more than one well and are listed for each. The record does not give: the 100% reference.

The opening 2 entries as a preview:
gene	technical replicate	viability, normalised (%)	activity call
PCDHB10	1	58	active
PCDHB10	2	49.3	active

Main list, repeating the preview:
gene	technical replicate	viability, normalised (%)	activity call
PCDHB10	1	58	active
PCDHB10	2	49.3	active
PCDHB10	3	75.7	active
PRPF19	1	39	active
PRPF19	1	26.1	active
PRPF19	2	32.2	active
PRPF19	2	43.3	active
PRPF19	3	44.6	active
PRPF19	3	26.6	active
HMGN2	1	74.6	active
HMGN2	2	65.3	active
HMGN2	3	62.9	active
MED13	1	70.5	active
MED13	2	56	active
MED13	3	84.2	inactive
PRKACB	1	69.1	active
PRKACB	2	74	active
PRKACB	3	47.4	active
SGK2	1	60	active
SGK2	2	67.3	active
SGK2	3	57.4	active
DHFR	1	51.4	active
DHFR	2	63.5	active
DHFR	3	47.8	active
BMX	1	44.9	active
BMX	2	49.2	active
BMX	3	52.8	active
PCDHB16	1	38.4	active
PCDHB16	2	26.5	active
PCDHB16	3	35.2	active
SATB2	1	33.9	active
SATB2	2	33.3	active
SATB2	3	29.7	active
CLDN16	1	25.9	active
CLDN16	2	31.3	active
CLDN16	3	32.5	active
DHX57	1	46.8	active
DHX57	2	60.4	active
DHX57	3	59.4	active
